Experimental data published in patent publication US10576085B2, “Substituted aminopurine compounds, compositions thereof, and methods of treatment therewith” (Signal Pharmaceuticals, LLC, priority 2016, dated 2020).
At least one structure is not confirmed: it was looked up by name or label, or the drawing left a doubt.

Tested on: TEAD reporter activity (YAP/TAZ responsive synthetic promoter)
Assay: TEAD reporter assay, 8×GTIIC-luciferase WI38 VA13 cells
Assay type: cell-based
Settings: 24 or 72 hours
Method: TEAD reporter activity was analyzed using WI38 VA13 cells stably expressing a YAP/TAZ responsive synthetic promoter driving luciferase expression (8×GTIIC-luciferase). 10,000 cells per well were seeded on a white-walled 96-well plate and left overnight. After 16-20 hours, cells were treated with compound and TEAD reporter activity was measured 24 or 72 hours later using Bright Glo luciferase assay (Promega) according to the manufacturers instructions. This assay was performed 3 times for Compound 1 and twice for Trametinib.

## CC(=O)Nc1cccc(-n2c(=O)n(C3CC3)c(=O)c3c(Nc4ccc(I)cc4F)n(C)c(=O)c(C)c32)c1 [Trametinib, trametinib, reference compound]
  Inhibition of TEAD reporter activity: did not inhibit TEAD reporter activity
